Source: patent US11738037B2, “Agent for preventing or improving decline in brain function” (KYOWA HAKKO BIO CO., LTD., priority 2012, dated 2023)
At least one compound was matched to its structure with a doubt left.

Assays:
Type in all cases: in vivo, C57BL/6J mice
[1] = system: bilateral common carotid arteries occlusion mice; assay: Y-maze test (spontaneous alternation behavior); details: oral, after 7 days of administration, FIG. 1
Description: (§1) Experimental Example: 10-week-old male C57BL/6J mice (CLEA Japan, Inc. approximately 25 g of average body weight per mouse) were preliminarily acclimated for 1 week, and provided for experiments. L-citrulline and citicoline were obtained from KYOWA HAKKO BIO CO., LTD.
(§2) C57BL/6J mice were divided into a sham-operation group (Group 1) and a bilateral common carotid arteries occlusion group, which was performed under halothane anesthesia for 20 minutes. One day after reperfusion, the bilateral common carotid arteries occlusion group was further divided into a distilled water-treated group (Group 2), a low-dose L-citrulline-treated group (40 mg/kg: Group 3), a low-dose citicoline-treated group (40 mg/kg: Group 4), a high-dose L-citrulline-treated group (100 mg/kg: Group 5), a high-dose citicoline-treated group (100 mg/kg: Group 6), and a combination treatment group of a low dose of L-citrulline and a low dose of citicoline (each 40 mg/kg: Group 7). Each sample was orally administered for 12 days. […] After evaluating learning memory functions, the hippocampus was removed and viability of hippocampal nerve cells was evaluated.
In the Y-maze test, a Y-maze apparatus with three arms (50×16×32 cm) was used. […] The sequence of arm entries was recorded. The number of entries into each arm was counted during the measurement time, which was defined as the total number of entries. […]

[2] = system: bilateral common carotid arteries occlusion mice; assay: Passive avoidance test; details: oral, after 7 days of administration, compared to Group 2, FIG. 2
Description: as §1
(§3) C57BL/6J mice were divided into a sham-operation group (Group 1) and a bilateral common carotid arteries occlusion group, which was performed under halothane anesthesia for 20 minutes. […] After evaluating learning memory functions, the hippocampus was removed and viability of hippocampal nerve cells was evaluated.
The passive avoidance test was performed using a box consisting of dark (25×25×25 cm) and light compartments (14×10×25 cm) and being equipped with an electrical stimulation apparatus at the bottom of the dark compartment. […] Twenty four hours after training, the mouse was placed again in the light compartment, and the latency time spent in the light compartment was recorded with a maximum latency of 300 seconds.

[3] = system: bilateral common carotid arteries occlusion mice; assay: Novel object recognition test; details: oral, after 7 days of administration, novel vs familiar object, FIG. 3
Description: as §1
as §2, with “7).” for “7). Each sample was orally administered for 12 days.”
The novel object recognition test was performed after mice were individually acclimated to the open field apparatus (35×25×35 cm) for 2 days. […] A ratio of the frequency of exploring the familiar or novel object over the total exploration frequency was calculated, and used as an index for visual recognition memory.

[4] = system: hippocampal nerve cells (CA1 pyramidal cell layer); assay: Evaluation of viability of hippocampal nerve cells; details: oral for 12 days, compared to Group 2, FIG. 4
Description: as §1, §3
Twelve days after bilateral occlusion of the common carotid arteries, mice were anesthetized with pentobarbital sodium, and perfused with ice-cold phosphate buffer (PBS, pH 7.4) until the blood in the body was completely removed. […] Surviving and non-surviving nerve cells in the CA1 pyramidal cell layer of the hippocampus were counted at 1.4 to 1.8 mm posterior to bregma, and cells with PI-positive nuclei and typical morphological characteristics were defined as surviving nerve cells. The cell viability was calculated from a ratio to the average number of surviving nerve cells in Group 1.

## C[N+](C)(C)CCOP(=O)(O)OP(=O)([O-])OC[C@H]1O[C@@H](n2ccc(N)nc2=O)[C@H](O)[C@@H]1O [citicoline, citidine-5′-diphosphocholine]
[1]; high dose 100 mg/kg, compared to Group 2
  spontaneous alternation behavior rate (Alternation): improved effect of memory behavior
[1]; low dose 40 mg/kg, compared to distilled water-treated occlusion group (Group 2)
  spontaneous alternation behavior rate (Alternation): Alternation cannot be improved
[2]; high dose 100 mg/kg
  time spent in the light compartment (Latency time): improved effect of memory behavior
[2]; low dose 40 mg/kg
  time spent in the light compartment (Latency time): latency time cannot be improved
[3]; high dose 100 mg/kg
  frequency of exploring the novel object: remarkably improved effect of memory behavior
[3]; low dose 40 mg/kg
  frequency of exploring the novel object: frequency of exploring the novel object cannot be increased
[4]; high dose 100 mg/kg
  viability of hippocampal nerve cells: nerve cell-protecting effect
[4]; low dose 40 mg/kg
  viability of hippocampal nerve cells: viability of hippocampal nerve cells cannot be improved
